# In PubChem BioAssay AID590 (National Center for Advancing Translational Sciences (NCATS), 2007):
# Among all 59,000 compounds or so, about 6,500 (11%) were called active. Inconclusive results, whose numbers are uncertain, are shown with a selection of clear calls. No stated cut-off is given here; in the data, active means max dye-equivalent concentration above about 10 nM; inconclusive means mostly about 1.1 nM to 9.6 nM; inactive means weaker than that. Some structures have more than one record in an assay (separate samples or runs), and their calls can disagree.
# Experiment: qHTS Assay for Spectroscopic Profiling in A350 Spectral Region
# Conditions: Compound autofluorescence, 340/450 nm, Alexa 350 dye-equivalents; stronger effect = higher value
# Excerpt: NIH Molecular Libraries Screening Centers Network [MLSCN]
# NIH Chemical Genomics Center [NCGC]
# Occasionally, the artifactual effect may originate from the compounds own spectral or other biophysical properties which generally tend to track its assay concentration. Pre-screening/profiling the library with respect to the compounds spectral properties should help one exclude false positives early on. While the most informative fluorescent profiling data set is obtained by performing a full excitation and emission scan of each well by using a monochromator-based plate reader, such an approach is practical only on a very limited scale as scanning each well requires long time. An alternative approach, applied here, is to perform plate reader scans using selected excitation and emission wavelength pairs to generate a multidimensional relational database that correlates compound concentration and the respective relative fluorescence intensity at a given wavelength set. A standard curve of Alexa 350 (A 350) present on each plate as six-point concentration series, was used to compute a normalized fluorescence response, termed dye-equivalent concentration, for each compound at each concentration.
# NCGC Assay Protocol Summary:
# 100 mM Tris buffer, pH 8.0
# The wells in columns 1 through 4 of a Kalypsys polypropylene 1536-well compound plate were filled with standard solutions of fluorophore corresponding to the spectral region of interest. Solutions of A 350 were placed in the following wells: I1, J1: 3 mM, I2, J2: 300 uM, I3, J3: 30 uM, I4, J4: zero (DMSO), K1, L1: 3 uM, K2, L2: […], K3, L3: 300 nM, K4, L4: zero (DMSO).
# Six uL of buffer were dispensed to 1536-well Greiner black plates. Compounds and dye standards (23 nL) were transferred via Kalypsys PinTool. The plates were incubated for 15 min at room temperature, and then read on ViewLux (Perkin-Elmer) High-throughput CCD imager using 340 nm and 450 nm excitation and emission filter set.
# Keywords: NIH Roadmap, MLSCN, MLI, MLSMR, qHTS, NCGC, A350, A-350, Fluorescent Profiling.
row,Structure (SMILES),max dye-equivalent concentration
1,O=C(Cn1nc(C(F)(F)F)c2c1CCC2)NC1CCCCC1,inconclusive: 8.7 nM
2,Nc1cc(-c2ccco2)no1,inactive
3,O=C(CCN1C(=O)c2cccnc2C1=O)NC1CCCCCC1,inconclusive: 1.3 nM
4,O=c1c(CCc2ccccc2)nc2cnc(N3CCOCC3)nc2n1CCc1ccccc1,inactive
5,O=C(O)c1ccc2c(c1)ncn2C1CCCCCC1,inconclusive: 6.3 nM
6,Nc1nnc(SCC(=O)N2CCc3ccccc32)n1-c1ccccc1,inconclusive: 1.5 nM
7,COc1nc(C#N)nc(N(C)C)n1,inactive
8,Cc1ccc2nsnc2c1S(=O)(=O)N(Cc1ccco1)Cc1cc2cccc(C)c2[nH]c1=O,active: 55 nM
9,COc1ccccc1Nc1ncnc2c1cnn2-c1cccc(C)c1,active: 15 nM
10,COc1ccc2[nH]cc(CCNC(C)=O)c2c1,inconclusive: 1.5 nM
11,O=C(O)c1ccc(NC(=O)c2cccs2)cc1,inconclusive: 1.1 nM
12,CN1Cc2cc(C(=O)c3cc(Cl)cc(CSc4ncccn4)c3O)cnc2NC1=O,inactive
13,O=C(CCN1CCCCC1)N1CCc2c([nH]c3ccccc23)[C@H]1c1cccnc1,inactive
14,Cc1ccccc1CSc1ncc(C#N)c(N)n1,inconclusive: 3.9 nM
15,COc1ccc(CNc2nc3nc(C)cc(C)n3n2)cc1OC,inconclusive: 1.4 nM
16,c1cn(CCCNC2=NCCCCC2)cn1,inconclusive: 2.3 nM
17,Cc1cccc(NC(=O)N2CCC(c3nc4ccccc4o3)CC2)c1,inconclusive: 1.5 nM
18,CC(=O)c1nc(N2C(=O)C3CC=C(C)CC3C2=O)sc1C (configuration not stated),inactive
19,O=C(CSc1n[nH]c(-c2cccs2)n1)NCc1cccs1,inconclusive: 1.3 nM
20,COc1cccc(Nc2ncc3nc(C)c(=O)n(C)c3n2)c1,inactive
21,Cc1ccc(-c2nc3c(=O)n(C)c4ccccc4c3o2)cc1,active: 100 nM
22,O=C(Nc1ccc(Cl)c(Cl)c1)N(Cc1cccnc1)Cc1ccco1,inconclusive: 1.4 nM
23,N#CC(C#N)=C(N)/C(C#N)=C/c1ccc(O)cc1,inconclusive: 3.6 nM
24,CC(C)C1=CC2=CC[C@H]3[C@@](C)(CCC[C@]3(C)C(=O)O)[C@@H]2CC1,inactive
25,COc1ccccc1CN1CC(C(=O)NC2CCCCC2)CC1=O (configuration not stated),inconclusive: 1.6 nM

row,Structure (SMILES),max dye-equivalent concentration
1,Cc1cc(C(=O)CSc2nnc(-c3cccnc3)n2-c2ccccc2F)c(C)n1C,inactive
2,Cc1nnc(SCC(=O)Nc2ccccc2N2CCOCC2)s1,inactive
3,COc1cc(CNc2ccc(N3CCOCC3)c(C(=O)O)c2)ccc1OCC(N)=O,active: 23 nM
4,NCCS(=O)(=O)O,inactive
5,O=C(NCCCN1CCOCC1)c1cc2ccccc2oc1=O,active: 26 nM
6,Cc1cc2ccc(C)c(C)c2nc1SCC#N,inconclusive: 2.3 nM
7,COc1ccc(S(=O)(=O)N2CCC(C(=O)NCc3ccccn3)CC2)cc1Cl,inconclusive: 1.4 nM
8,CCOc1ccccc1/C=c1\sc2nc(-c3ccco3)nn2c1=O,inconclusive: 6.9 nM
9,COc1ccccc1CNC(=O)CCCN1C(=O)COc2ccc(C)cc21,inconclusive: 2.5 nM
10,Cc1ccc(N)c(C(=O)CCCCC(=O)O)c1,inconclusive: 1.4 nM
11,COc1nc(C)nc(Cl)c1NC1=NCCN1,inconclusive: 2.7 nM
12,COc1ccccc1C1C=C(c2ccc(Cl)cc2)Nc2nc(NS(C)(=O)=O)nn21 (configuration not stated),active: 810 nM
13,CC(=O)Nc1ccc2c(c1)nc(CCNC(=O)c1ccccc1)n2C,inconclusive: 7 nM
14,COc1ccc2c3c(c(=O)oc2c1OCC(N)=O)CCCC3,inconclusive: 5.8 nM
15,COc1c(O)cccc1-c1nnn(CCC(=O)OCC(=O)c2ccccc2)n1,inactive
16,CCOC(=O)c1c(/N=C/N(C)C)sc(C(=O)OC)c1C,inconclusive: 1.8 nM
17,CC(C)(C)NC(=O)COC(=O)c1snc(C(=O)NC2CCCCC2)c1N,active: 320 nM
18,Cc1cc2c(cc1C)N(CC(=O)N1CCCC1)C(=O)CC(c1ccccc1)=N2,inactive
19,CCn1c(SCC(=O)Nc2cc(C)on2)nnc1-c1ccncc1,inconclusive: 3.3 nM
20,CCc1cc2c(=O)c(-c3nc4ccccc4n3C)coc2c(CN2CCN(C)CC2)c1O,active: 72 nM
21,CCOC(=O)C1=C(C)NC(=O)C(C(N)=O)C1c1ccccc1 (configuration not stated),inconclusive: 1.4 nM
22,CC1(C)Cc2c(sc3c2c(=N)n(Cc2ccco2)c(=O)n3Cc2ccccc2)CO1,active: 24 nM
23,CC(C)c1c(C#N)c(N)nc(SCC(=O)c2cc3ccccc3oc2=O)c1C#N,inconclusive: 3.5 nM
24,COC(=O)[C@@H](NC(=O)N1CCN(c2cccc(C(F)(F)F)c2)CC1)C(C)C,inconclusive: 1.4 nM
25,Cc1ccc(CSc2nnc(-c3ccco3)n2N)cc1,inactive

# Looked up above.
# max dye-equivalent concentration, COc1ccccc1CNC(=O)CCCN1C(=O)COc2ccc(C)cc21 is entered as inconclusive: 2.5 nM
# max dye-equivalent concentration, COc1ccc(S(=O)(=O)N2CCC(C(=O)NCc3ccccn3)CC2)cc1Cl is entered as inconclusive: 1.4 nM
# max dye-equivalent concentration, CC1(C)Cc2c(sc3c2c(=N)n(Cc2ccco2)c(=O)n3Cc2ccccc2)CO1 is entered as active: 24 nM
# max dye-equivalent concentration, NCCS(=O)(=O)O is entered as inactive
# max dye-equivalent concentration, Cc1ccc(N)c(C(=O)CCCCC(=O)O)c1 is entered as inconclusive: 1.4 nM

# (cont.)

row,Structure (SMILES),max dye-equivalent concentration
1,FC(F)(F)c1cc(-c2ccco2)nc(N2CCOCC2)n1,inconclusive: 6 nM
2,N[C@H](CCC(=O)NCS(=O)(=O)O)C(=O)O,inconclusive: 8.9 nM
3,CC(NC(=O)CSc1nc2ccccc2c(=O)n1CCCO)c1ccccc1 (configuration not stated),inconclusive: 1.6 nM
4,CCN1CCn2c1nc(N1CCOCC1)nc2=O,inconclusive: 1.8 nM
5,Cc1c(CCC#N)c(N2CCN(C3CCCCC3)CC2)n2c(nc3ccccc32)c1C#N,inconclusive: 8.2 nM
6,CC1(C)Cc2c(c(N3CCOCC3)nc3sc4c(NCc5ccco5)nnnc4c23)CS1,inconclusive: 4.6 nM
7,O=C(O)CCNc1ccccc1C(=O)O,active: 85 nM
8,COc1ccc(CNC(=O)NCc2ccc(OC)c(OC)c2)cc1OC,inactive
9,COc1ccc(-c2cc(C(F)(F)F)nc(SCCC(=O)N3CCOCC3)n2)cc1,active: 16 nM
10,O=C1NC2=C(C(=O)CCC2)C(c2ccc3ncccc3c2)N1 (configuration not stated),inactive
11,CCc1nnc(NC(=O)CSc2nc3c(cc2C#N)CCC3)s1,inconclusive: 5.9 nM
12,CN(Cc1ccco1)c1cc(-c2cccc(C#N)c2)ncn1,inactive
13,CCCN(Cc1cc2cc(C)ccc2[nH]c1=O)C(=O)c1cccc(OC)c1,inconclusive: 6 nM
14,O=c1c(-c2ccccc2)nc2cnc(N3CCOCC3)nc2n1C1CC1,inconclusive: 5.6 nM
15,CCc1ccc(NC(=O)CS(=O)CC(=O)Nc2ccc(F)cc2F)cc1 (configuration not stated),inactive
16,Cn1cccc1-c1cc(C(=O)O)[nH]n1,inconclusive: 3.8 nM
17,C=CCc1cccc2cc(C(=O)NC(C)(C)C)c(=O)oc12,inconclusive: 4.5 nM
18,COc1ccc(-n2c(=O)c(CCc3ccccc3)nc3cnc(N4CCOCC4)nc32)cc1,inconclusive: 7.8 nM
19,C[C@H](O)[C@H](O)[C@@H]1CNc2nc(N)[nH]c(=O)c2N1,active: 1700 nM
20,CCCCCc1c(C)nc(N2CCOCC2)[nH]c1=O,inactive
21,CN1CCN(c2ncc3nc(CCc4ccccc4)c(=O)n(C)c3n2)CC1,active: 34 nM
22,CCc1ccc(Nc2oc(C)cc(=O)c2C(C)=O)cc1,inactive
23,COc1cccc(NC(=O)C2CCCN(S(=O)(=O)c3ccc(-n4cnnn4)cc3)C2)c1 (configuration not stated),inactive
24,O=C(Cn1nnc2c(cnn2-c2ccc(F)cc2)c1=O)c1ccccc1F,active: 57 nM
25,CCNc1ncc2nc(-c3ccc(Cl)cc3)c(=O)n(CCC#N)c2n1,active: 110 nM

row,Structure (SMILES),max dye-equivalent concentration
1,CC(C)(C)NC[C@H](O)c1cc(O)cc(O)c1,active: 190 nM
2,Cc1cc(C)nc(N2CCC(C(=O)Nc3cccc(C(F)(F)F)c3)CC2)n1,active: 12 nM
3,O=c1c(O)c(-c2cc(O)c(O)c(O)c2)oc2cc(O)cc(O)c12,inactive
4,N#Cc1ccc(CSc2nnc(Cc3cccs3)n2Cc2ccco2)cc1,inconclusive: 6.1 nM
5,COCCn1c(SCC(=O)Nc2cccc(C(=O)OC)c2)nc2ccccc2c1=O,inactive
6,CC(CC(=O)O)CC1=NS(=O)(=O)c2ccccc2N1 (configuration not stated),inconclusive: 1.7 nM
7,CC1=C/C(=C\c2ccc3c(c2)OCO3)C(=O)S1,inconclusive: 7 nM
8,CCOC(=O)c1ccc(NC(=O)CSc2nnnn2CCCO)cc1,inactive
9,COc1cc(C(=O)NCCC(=O)NCCCN2CCCCC2C)cc(OC)c1OC (configuration not stated),inconclusive: 3.2 nM
10,Cc1ccc(OC(C)c2nnc(N)s2)cc1Cl (configuration not stated),inconclusive: 4.2 nM
11,C#CCN(C)Cc1ccccc1,inconclusive: 5.6 nM
12,CCOc1nc2ccccc2nc1NS(=O)(=O)c1ccccc1,inconclusive: 3.1 nM
13,O=C(Cn1cnc2c(oc3ccccc32)c1=O)NCc1ccco1,inconclusive: 2.7 nM
14,CCCc1cc(COC)c(C#N)c(=O)[nH]1,active: 13 nM
15,CC1CC(C)CN(c2ncc3c(n2)CC(c2ccccc2Cl)CC3=O)C1 (configuration not stated),inconclusive: 2.1 nM
16,N#Cc1c(NC(=O)c2ccncc2)sc2c1CCC2,inactive
17,CC1CCCC(C)N1C(=O)C1CC(c2ccc(F)cc2)=NO1 (configuration not stated),inconclusive: 8.8 nM
18,CCOC(=O)c1c(-c2ccccc2)[nH]c2ccc(O)cc12,inconclusive: 3.6 nM
19,Cc1cc(C)c(C#N)c(SCc2ccc3c(c2)OCO3)n1,inactive
20,Brc1ccc(-c2nc(-c3ccccc3)no2)o1,inactive
21,COc1ccccc1CNS(=O)(=O)c1c(C)noc1C,inactive
22,CC(C)COc1ccc(/C(O)=C2/C(=O)C(=O)N(CCN(C)C)C2c2ccncc2)cc1 (configuration not stated),inconclusive: 1.4 nM
